No constants are given. Whether binding was seen depends on the method and setting. Binding seen in cells or lysates may run through a third protein. A result given as binding can be weak or reduced; the word gives no strength.
How the values were obtained:
[1] = target: I-2^SZY-2 (C. elegans homolog of inhibitor-2, regulator of protein phosphatase 1) (C. elegans (endogenous in N2 worms)) (UniProt Q9N537); assay: co-IP; endogenous proteins immunoprecipitated from N2 whole worm extracts (1.6 mg total protein) with 10 ug antibody on Dynabeads Protein A, 4°C; washed in worm lysis buffer (50 mM HEPES pH 7.4, 1 mM EGTA, 1 mM MgCl2, 100 mM KCl, 10% glycerol, 0.05% NP-40); western blot; control IgG
[2] = target: PP1β^GSP-1 (C. elegans PP1 catalytic subunit, PP1β homolog) (C. elegans (endogenous in N2 worms)) (UniProt Q27497); assay: as above

Sequences of proteins named here, by UniProt entry; tags and fusion partners are left off.
UniProt Q27497: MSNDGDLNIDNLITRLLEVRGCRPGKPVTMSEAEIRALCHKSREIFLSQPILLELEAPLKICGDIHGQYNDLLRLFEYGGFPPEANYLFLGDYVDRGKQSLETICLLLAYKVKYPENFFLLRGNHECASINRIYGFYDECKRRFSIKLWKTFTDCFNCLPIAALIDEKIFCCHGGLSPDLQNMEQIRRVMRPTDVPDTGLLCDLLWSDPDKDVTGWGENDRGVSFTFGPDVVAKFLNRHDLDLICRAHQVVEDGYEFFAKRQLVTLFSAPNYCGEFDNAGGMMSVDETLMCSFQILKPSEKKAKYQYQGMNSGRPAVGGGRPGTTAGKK
UniProt P48727: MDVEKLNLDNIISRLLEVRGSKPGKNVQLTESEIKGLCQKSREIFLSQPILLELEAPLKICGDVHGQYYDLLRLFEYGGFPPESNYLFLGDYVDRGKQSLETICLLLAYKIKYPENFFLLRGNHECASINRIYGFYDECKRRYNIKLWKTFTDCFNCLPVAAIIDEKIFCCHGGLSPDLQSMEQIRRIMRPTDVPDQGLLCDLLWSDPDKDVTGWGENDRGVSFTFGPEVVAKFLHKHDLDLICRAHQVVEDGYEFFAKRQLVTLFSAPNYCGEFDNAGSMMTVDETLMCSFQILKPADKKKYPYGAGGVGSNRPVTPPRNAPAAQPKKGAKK

Row | binding [1] | binding [2] | Molecule
1 | binds | – | PP1α^GSP-2 (C. elegans PP1 catalytic subunit, PP1α homolog) (from UniProt P48727 1-333) (enzyme)
2 | – | binds | I-2^SZY-2 (C. elegans homolog of inhibitor-2, regulator of protein phosphatase 1) (from UniProt Q9N537)
3 | binds | – | PP1β^GSP-1 (C. elegans PP1 catalytic subunit, PP1β homolog) (from UniProt Q27497 1-329) (enzyme)
4 | no binding | – | SDS-22 (C. elegans leucine-rich repeat PP1 regulator) (protein, UniProt P45969 1-326) MSNDKSAEVVVLPRENDEESKEPVLKNQFDLSTFDIDSPEIDLTHTRADHIPDLTGFPKIEELRMRNNLLVSISPTISSLVTLTSLDLYENQLTEISHLESLVNLVSLDLSYNRIRQINGLDKLTKLETLYLVSNKIEKIENLEALTQLKLLELGDNRIKKIENIGHLVNLDELFIGKNKIRQLEGVETLQKLSVLSLPGNRIVKIENVEQLNNLKELYLSDQGLQDIHGVEPLTNLLLLDVANNEIKTFSGVERLESLNDFWANDNKVESFSEIEQLSKLKGLQTVYLERNPFYFNDTNQYRRKVMMTLTQVTQIDATTCRKPIE
5 | no binding | – | ZYG-1 (C. elegans homolog of Plk4) (enzyme, UniProt Q9GT24 1-706) MSGGKSGSRLSAYSHLKEIGKGGFGVVYAAQRENGEKVAIKRIDKKVPKNRVWTEIQTMKELKKSKYVVEFYEDFVEDGYTYIVMELCEGGSLQAYVREHGALDDATAVHVLRQLISAVSFMHRVNVIHRDLSAGNVFIKDSKKKKMTVKLGDFGLATTLGRGETTCTIVGTPGFIAPQVYDQEYTQSADVYSLGAVLYTMLTARNPPPKGLPPTCGMSPNAARLVEQMMDTDAKKRIPLTQIVLSEFMYENTNENAVIFSREHSRDGRRQRSREPVRSSRDDRSRDGRALIRSSSQPAHSGRAPLSNRPIHDRMPSTSSRGFDSERGRERDRDSGRGTVPPSREDRNRSQLWPIRMDRLEGQRVCTAGGRYIVELDTRCRFEVAAQGNFVKRILIVEVDEMVQTVYVHRIPDRTVRGRNGEEELITLTNNPFVYTSYSQMPKEVQNDYMRLQKMVAVTISGRVAKVTFRRPSQFPDAQAQLMENGDLRIKLPRSVIVRKMDNGEIFNCIDGIATQKQAVSGITLTKVNEVYKYLIRFEQCLNGMDRGMVCFPIVFSAGTNMVGSSPSSLMPSGSSQTSRFPFSNLSNNQPSLVPHSAPFLTKPTSSQRASSANVQRRVSTDENSSPSVAPSKYKIKIDPTTQKVRSIQATDGRVLRCSTSKADQFIFTDPAIRPDDQRFMRTDRVPDRASEMLHTLCERMRKLHQ

Source: article PMC5289615
